Test results reported in patent US20240366649A1, “4-ETHYNYL-3-HYDROXY-TETRAHYDROFURANYL-ADENINE PHOSPHORAMIDATES AND RELATED COMPOUNDS AND THEIR USE IN TREATING MEDICAL CONDITIONS” (ROME THERAPEUTICS, INC., priority 2021, published 2024).
Some entries of the source have several records that differ or are many. Only these are listed. An entry can have further records. The records of an entry differ for a reason that is not stated; some may be repeats, others may stem from another dose, organism or construct than stated.

System: IFN production in THP1 TREX1 KO cells
Test: Cellular assay for altering IFN production in THP1 TREX1 KO cells
Settings: read-out: IFN EC50; inducers of IFN; in the presence of 1 μM 5-aza-2′-deoxycytidine, five days
Description: THP1-Dual™ KO-TREX1 cells were purchased from Invivogen (cat #thpd-kotrex). The THP1-Dual™ KO-TREX1 cells were cultured in RPMI 1640, 10% heat-inactivated fetal bovine serum, 25 mM HEPES, 10 μg/mL Blasticidin, and […] Zeocin. THP1-Dual™ KO-TREX cells were treated with a dose titration of test compound in the presence of 1 μM 5-aza-2′-deoxycytidine (Sigma, cat #189825). Type 1 Interferon and cell viability were assessed after five days of treatment.
Stock solution of test compound was prepared in DMSO followed by a three-fold dilution in DMSO. Additional 50× dilution was prepared in cell culture media for each dilution. 10 μL of diluted test compound was then added to a 384-well plate.
THP1-Dual™ KO-TREX1 cells were treated with 1 μM 5-aza-2′-deoxycytidine. THP1-Dual™ KO-TREX1 cells (50 μL) were added to each well of the 384-well plate containing test compound titration at 10,000 cells/well. Cells were incubated at 37° C., 5% CO2 in a humidified incubator for five days. On day five, 20 μL of cell supernatant was transferred to a 384-well, white-walled plate, followed by addition to each well of 50 μL of QUANTI-LUC solution containing stabilizer. Luminescence was detected on a plate reader according to manufacturer's instructions. […]

EC50: < 1 µM and > 10 µM
SMILES: C#C[C@]1(COP(=O)(N[C@@H](C)C(=O)OCc2ccccc2)Oc2ccccc2)O[C@@H](n2cnc3c(N)nc(F)nc32)C[C@@H]1O (stereo partly shown)
